Experimental data as given in patent publication US20230287094A1 (LUDWIG INSTITUTE FOR CANCER RESEARCH, published 2023).
No constants are given. Whether binding was seen depends on the method and setting. Some binding calls cover weakened binding; strength is not graded here.

T1: human TGF-β3 (human, UniProt P10600 301-412)
T1 sequence: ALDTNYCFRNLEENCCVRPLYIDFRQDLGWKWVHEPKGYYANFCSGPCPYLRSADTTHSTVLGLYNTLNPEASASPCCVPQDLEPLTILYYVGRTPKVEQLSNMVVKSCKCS

T2: mouse TGF-β3 (mouse) (UniProt P17125)
T2 sequence: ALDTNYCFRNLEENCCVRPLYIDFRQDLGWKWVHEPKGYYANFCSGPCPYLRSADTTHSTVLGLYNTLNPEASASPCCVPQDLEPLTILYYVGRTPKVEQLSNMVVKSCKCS

B1: MTGF-β3-1901/16 (antibody, IgG1, V domains shown)
VH: QVLLQQSGPELVKPGASVKISCKASGYAFSSSWIHWVKQRPGKGLEWIGRIYPGDGDTNYTGKFKGKATLTADKSSSTAYMQLSSLTSEDSAVYFCARRMITTQAAMDYWGQGTSVTVSS
VL: SFVMTQTPKFLLVSAGDRVTITCKASQSVINAVAWYQQKPGQSPKLLIYYASNRYTGVPDRFTGNGYGTDFTFTISTVQAEDLAVYFCQQDYSSPYTFGGGTKLEIK
B2: MTGF-β3-1679/2 (antibody, IgG2a, V domains shown)
VH: QVLLQQSGPELVKPGASVKISCKASGYAFSSSWIHWVKQRPGKGLEWIGRIYPGDGDTNYTGKFKGKATLTADKSSSTAYMQLSSLTSEDSAVYFCARRMITTQAAMDYWGQGTSVTVSS
VL: SFVMTQTPKFLLVSAGDRVTITCKASQSVINAVAWYQQKPGQSPKLLIYYASNRYTGVPDRFTGNGYGTDFTFTISTVQAEDLAVYFCQQDYSSPYTFGGGTKLEIK
B3: MTGF-β3-9/8 (antibody, IgG2a, V domains shown)
VH: QVLLQQSGPELVKPGASVKISCKASGYAFSSSWMHWVKQRPGKGLEWIGRIFPGDGDTIYNGNFKGKATLTADKSSSTAYMQLSSLTSEDSAVYFCARRMITTQAAMDYWGQGTSVTVSS
VL: SIVMTQTPKFLLVSAGDRVTITCKASQSVINDVAWYQQKPGQSPKLLIYYASNRYTGVPDRFTGNGYGTDFTFTISTVQAEDLAVYFCQQDYSSPYTFGGGTKLEIK
B4: MTGF-β3-1203/11 (antibody, IgG2b, V domains shown)
VH: QVQLKQSGAELVKPGASVKISCKASGYTFTDYYINWVKQRPGQGLEWIGKIGPGTGRTYYNEKFKGKATLTADKSSSTAYMQLSSLTSEDSAVYFCAIYYGWGYAMDYWGQGTSVTVSS
VL: DIVMTQSPSSLSVSAGEKVTMSCKSSQSLLNSGNQKNYLAWYQQKSGQPPKLLIYGASTRESGVPDRFTGSGSGTDFTLTISSVQAEDLAVYYCQNDHGFPLTFGAGTKLELK
B5: MTGF-β3-1719/13 (antibody, IgG2a, V domains shown)
VH: QVQLQQPGAELVKPGASVKMSCKASGYIFTSYWITWVKQRPGQGLEWIGDIFPGTGSTNYNEKFKTKASLTVDTSSSTANMQLSSLTSEDSAVYSCARKLGPNYAVDYWGQGTSVTVSS
VL: DVVMTQTPLSLPVSLGDQASISCRSSQSLIHSHGNTYLHWYLQKPGQSPKLLIYKLSNRFSGVPDRFSGSGSGTDFTLKISRVEAEDLGVYFCSQSTHVPFTFGSGTKLEIK
notes: also called TGF-ß3-17

What was measured:
human TGF-β3 [1] = molecular target: T1, human TGF-β3; assay: dose-response ELISA on human TGF-β isoforms (FIG. 4B)
human TGF-β3 [2] = molecular target: T1, human TGF-β3; assay: ELISA on plates coated with 500 ng/ml human TGF-β isoforms, antibody at 3 µg/ml (FIG. 4A)
human TGF-β3 [3] = molecular target: T1, human TGF-β3; assay: ELISA on recombinant TGF-β3 (FIG. 3)
mouse TGF-β3 (mouse) = molecular target: T2, mouse TGF-β3 (mouse); assay: ELISA on recombinant TGF-β3 (FIG. 3)

Row | Binder | binding (human TGF-β3 [1]) | binding (human TGF-β3 [2]) | binding (human TGF-β3 [3]) | binding (mouse TGF-β3 (mouse))
1 | B1 | binds | binds | binds | binds
2 | B2 | – | – | – | binds
3 | B3 | – | – | – | binds
4 | B4 | – | – | – | binds
5 | B5 | – | – | – | binds
